Results deposited as PubChem BioAssay AID1259308 (NCATS, 2017)
Assay: 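Knock-downs that increase output of a recombinant reporter protein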 (primary screen). System: human HEK293 embryonic kidney cells stably expressing firefly luciferase (HEK-CMV-Luc2-Hygro). Reagents: single siRNA against human genes, 0.8 pmol siRNA per well. Duration: 72 h. Detection: 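Luciferase light (ONE-Glo) measured on one replicate plate set and viability (CellTiter-Glo) on the other, scaled to a negative control siRNA, with robust z-scores and luciferase per cell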. Scale: total luciferase, z-score and total luciferase, % of control: higher = more reporter protein produced; luciferase per cell, z-score: higher = more reporter output per viable cell; viable cells, % of control: higher = more viable cells. Active means: 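Active when the median/MAD z-score for overall luciferase is greater than 3; a gene was taken forward for validation with new siRNAs if at least two of its three siRNAs passed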. Calls: active = raised luciferase; inactive = no rise.
Here is a random part of about 59,000 reagents. In the full data, about 1,510 (2.6%) are marked active. 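Calls use total luciferase alone and ignore viability, so some active siRNAs may act by altering cell number.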 Entries without a mark were called inactive. Reagent sequences are not shown.

Target gene | PubChem SID | total luciferase, z-score | total luciferase, % of control | luciferase per cell, z-score | viable cells, % of control
CORO1B | SID160745757 | 0.205 | 86 | -0.306 | 104
CORO1B | SID160745758 | -0.617 | 69.6 | -0.344 | 85.2
CORO1B | SID160745759 | 0.672 | 95.2 | 0.475 | 93.9
SPHK1 | SID160721033 | -0.171 | 78.5 | -0.302 | 94.9
SPHK1 | SID160721034 | 0.818 | 98.1 | 0.462 | 97.1
SPHK1 | SID160721035 | -0.361 | 74.7 | -0.358 | 91.7
FDX2 | SID160732328 | -0.186 | 78.2 | 0.0989 | 85.1
FDX2 | SID160732329 | 0.319 | 88.2 | 0.545 | 85.4
FDX2 | SID160754740 | -0.101 | 79.9 | 0.248 | 83.6
KPRP | SID160768217 | 1.39 | 109 | 0.808 | 98.9
KPRP | SID160768218 | 0.812 | 98 | 0.647 | 92.4
KPRP | SID160768219 | -2.04 | 41.4 | -1.05 | 61
SETD7 | SID160750632 | 0.459 | 91 | 0.369 | 92.3
SETD7 | SID160750633 | 0.54 | 92.6 | 0.183 | 98.6
SETD7 | SID160750634 | 0.14 | 84.7 | 0.135 | 91.3
ALDH3B2 | SID160716382 | -0.369 | 74.5 | -0.957 | 107
ALDH3B2 | SID160716393 | 0.781 | 97.4 | 0.471 | 96.2
ALDH3B2 | SID160716404 | 0.646 | 94.7 | 0.96 | 82.2
GPR85 | SID160741624 | 0.723 | 96.3 | 0.433 | 96
GPR85 | SID160741625 | -1.28 | 56.5 | -1.56 | 95
GPR85 | SID160741626 | 0.0306 | 82.5 | -0.126 | 95.3
AK1 | SID160760502 | 1.35 | 109 | 1.56 | 80.5
AK1 | SID160760604 | -0.138 | 79.1 | -0.504 | 101
AK1 | SID160760711 | -0.0253 | 81.4 | -0.682 | 109
FAM90A20 | SID160726687 | -0.358 | 74.8 | 0.332 | 76.5
FAM90A20 | SID160726689 | -0.255 | 76.8 | -1.04 | 113
FAM90A20 | SID160771795 | 0.856 | 98.9 | 2.03 | 64.8
PCF11 | SID160741042 | -3.38 | 14.6 | -5.17 | 63.5
PCF11 | SID160741043 | -2.37 | 34.7 | -2.71 | 79.1
PCF11 | SID160741044 | -3.17 | 18.9 | -4.1 | 62.2
LRRC42 | SID160755195 | 4.56 (active) | 173 | 3.33 | 80.3
LRRC42 | SID160755196 | 1.71 | 116 | 1.95 | 77.6
LRRC42 | SID160755197 | -0.638 | 69.2 | -0.535 | 89
FAM199X | SID160757674 | -0.722 | 67.5 | 0.108 | 73.3
FAM199X | SID160757675 | -0.224 | 77.4 | -0.25 | 92.4
FAM199X | SID160757676 | 0.212 | 86.1 | -0.272 | 103
GUF1 | SID160747135 | -0.514 | 71.7 | -0.19 | 84.2
GUF1 | SID160747137 | 0.702 | 95.8 | 0.487 | 94.2
GUF1 | SID160747138 | -0.476 | 72.4 | 0.506 | 70.8
PTP4A1 | SID160719361 | -0.0295 | 81.3 | 0.402 | 81.7
PTP4A1 | SID160719362 | -0.866 | 64.7 | -0.585 | 84.3
PTP4A1 | SID160719363 | -2.4 | 34.1 | -2.38 | 71.5
UBTFL5 | SID160771613 | -0.88 | 64.4 | -0.345 | 78.8
UBTFL5 | SID160771614 | 1.22 | 106 | 1.01 | 90.9
UBTFL5 | SID160771615 | 0.551 | 92.9 | 0.425 | 92.8
LOC100287477 | SID160770235 | 1.7 | 116 | 1.01 | 99
LOC100287477 | SID160770236 | 1.09 | 104 | 1.34 | 81.3
LOC100287477 | SID160770237 | -0.162 | 78.7 | -0.605 | 103
ANKLE1 | SID160756501 | -1.31 | 55.8 | -0.959 | 80.3
ANKLE1 | SID160756502 | -0.422 | 73.5 | 1.1 | 61.5
ANKLE1 | SID160756503 | -1.67 | 48.7 | -1.18 | 74.4
ANO2 | SID160745592 | -1.04 | 61.1 | -1.13 | 92.1
ANO2 | SID160745593 | -0.29 | 76.1 | -0.737 | 103
ANO2 | SID160745594 | -0.078 | 80.3 | -0.142 | 93.2
RGL2 | SID160715523 | 1.65 | 115 | 1.12 | 95.3
RGL2 | SID160715524 | 0.434 | 90.5 | 0.347 | 92.3
RGL2 | SID160715525 | 0.151 | 84.9 | -0.344 | 104
NALF1 | SID160771591 | 0.201 | 85.9 | 0.136 | 92.6
NALF1 | SID160771592 | 0.149 | 84.9 | 0.127 | 91.7
NALF1 | SID160771593 | 0.811 | 98 | 0.22 | 103
FERMT2 | SID160729665 | 0.46 | 91 | 0.444 | 90.5
FERMT2 | SID160729666 | 3.33 (active) | 148 | 2.18 | 93.1
FERMT2 | SID160729667 | -0.88 | 64.4 | -1.59 | 109
LCN12 | SID160725042 | -1.31 | 55.8 | 0.612 | 53.1
LCN12 | SID160731016 | -0.275 | 76.4 | -0.2 | 90
LCN12 | SID160763824 | -1.58 | 50.4 | -0.683 | 67.4
KCTD4 | SID160765547 | 0.515 | 92.1 | 1.15 | 76.1
KCTD4 | SID160765548 | -0.535 | 71.2 | -0.931 | 102
KCTD4 | SID160765549 | -0.401 | 73.9 | -0.253 | 88.3
RBM43 | SID160733163 | -0.433 | 73.3 | -1.24 | 113
RBM43 | SID160765397 | 0.558 | 93 | 0.45 | 92.3
RBM43 | SID160765398 | 0.576 | 93.3 | 0.551 | 90.2
CCN6 | SID160720937 | -0.447 | 73 | -0.924 | 104
CCN6 | SID160720938 | 1.1 | 104 | 0.502 | 102
CCN6 | SID160720939 | 4.61 (active) | 174 | 2.1 | 112
